Among the data in article PMC7815709 are binding values, retold here.

Sequences of proteins named here, by UniProt entry; tags and fusion partners are left off.
UniProt Q6PDQ2: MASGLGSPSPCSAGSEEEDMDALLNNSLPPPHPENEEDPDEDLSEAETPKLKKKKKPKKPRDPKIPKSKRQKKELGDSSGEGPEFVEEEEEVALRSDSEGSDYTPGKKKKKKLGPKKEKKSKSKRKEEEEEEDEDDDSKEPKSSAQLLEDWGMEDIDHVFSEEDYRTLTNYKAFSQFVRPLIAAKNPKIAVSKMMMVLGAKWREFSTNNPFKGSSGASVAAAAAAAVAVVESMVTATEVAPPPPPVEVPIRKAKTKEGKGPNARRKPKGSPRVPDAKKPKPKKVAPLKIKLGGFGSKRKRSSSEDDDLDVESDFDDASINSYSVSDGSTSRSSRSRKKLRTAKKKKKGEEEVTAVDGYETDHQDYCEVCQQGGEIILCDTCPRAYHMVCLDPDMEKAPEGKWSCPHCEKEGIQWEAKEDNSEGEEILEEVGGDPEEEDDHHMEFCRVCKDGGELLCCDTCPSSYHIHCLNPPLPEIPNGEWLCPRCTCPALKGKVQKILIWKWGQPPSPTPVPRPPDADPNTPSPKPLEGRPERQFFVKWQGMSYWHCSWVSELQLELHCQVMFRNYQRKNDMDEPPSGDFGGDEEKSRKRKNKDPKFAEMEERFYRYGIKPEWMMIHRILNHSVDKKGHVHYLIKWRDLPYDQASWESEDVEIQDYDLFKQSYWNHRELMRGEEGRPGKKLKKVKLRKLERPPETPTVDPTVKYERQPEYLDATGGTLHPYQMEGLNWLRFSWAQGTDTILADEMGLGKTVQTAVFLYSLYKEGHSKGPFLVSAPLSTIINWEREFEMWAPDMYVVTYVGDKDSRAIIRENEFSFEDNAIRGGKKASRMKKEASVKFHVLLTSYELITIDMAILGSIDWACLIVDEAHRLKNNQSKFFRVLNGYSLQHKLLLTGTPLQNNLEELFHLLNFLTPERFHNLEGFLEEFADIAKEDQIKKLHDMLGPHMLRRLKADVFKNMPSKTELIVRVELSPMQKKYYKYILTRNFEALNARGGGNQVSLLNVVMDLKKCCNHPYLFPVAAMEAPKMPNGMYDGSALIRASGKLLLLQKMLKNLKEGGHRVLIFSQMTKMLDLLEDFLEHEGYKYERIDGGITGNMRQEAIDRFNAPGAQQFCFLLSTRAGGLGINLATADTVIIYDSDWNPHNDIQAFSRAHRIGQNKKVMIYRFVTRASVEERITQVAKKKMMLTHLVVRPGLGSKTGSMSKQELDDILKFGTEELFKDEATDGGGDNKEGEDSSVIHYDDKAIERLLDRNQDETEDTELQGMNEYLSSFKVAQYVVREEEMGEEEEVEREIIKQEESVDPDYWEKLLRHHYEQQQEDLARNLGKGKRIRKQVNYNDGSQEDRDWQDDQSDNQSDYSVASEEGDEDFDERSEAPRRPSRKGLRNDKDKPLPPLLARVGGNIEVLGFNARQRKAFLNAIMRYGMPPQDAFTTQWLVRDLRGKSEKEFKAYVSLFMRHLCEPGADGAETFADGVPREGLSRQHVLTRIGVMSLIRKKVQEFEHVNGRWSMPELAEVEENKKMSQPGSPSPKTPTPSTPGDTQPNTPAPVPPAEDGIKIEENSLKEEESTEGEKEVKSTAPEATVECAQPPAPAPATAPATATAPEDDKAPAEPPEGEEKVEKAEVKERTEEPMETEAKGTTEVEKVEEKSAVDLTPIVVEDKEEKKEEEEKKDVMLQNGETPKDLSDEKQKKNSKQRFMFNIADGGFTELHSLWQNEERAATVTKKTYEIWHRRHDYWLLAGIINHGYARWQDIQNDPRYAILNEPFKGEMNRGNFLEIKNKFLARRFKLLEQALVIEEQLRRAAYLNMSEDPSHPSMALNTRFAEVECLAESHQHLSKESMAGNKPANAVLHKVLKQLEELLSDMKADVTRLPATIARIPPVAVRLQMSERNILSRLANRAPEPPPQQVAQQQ
UniProt O09106: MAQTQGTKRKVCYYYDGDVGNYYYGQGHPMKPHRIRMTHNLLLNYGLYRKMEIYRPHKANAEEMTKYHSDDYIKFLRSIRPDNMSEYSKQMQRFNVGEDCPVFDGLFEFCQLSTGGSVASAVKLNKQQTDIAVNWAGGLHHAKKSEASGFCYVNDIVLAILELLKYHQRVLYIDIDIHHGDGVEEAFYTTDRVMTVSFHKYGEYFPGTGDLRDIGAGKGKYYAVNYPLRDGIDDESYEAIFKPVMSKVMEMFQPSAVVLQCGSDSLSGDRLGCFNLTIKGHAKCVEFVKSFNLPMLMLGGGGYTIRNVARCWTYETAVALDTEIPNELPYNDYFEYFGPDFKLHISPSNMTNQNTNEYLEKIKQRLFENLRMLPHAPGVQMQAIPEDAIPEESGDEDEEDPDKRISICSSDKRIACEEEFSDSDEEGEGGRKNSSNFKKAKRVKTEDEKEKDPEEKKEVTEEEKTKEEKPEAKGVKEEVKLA
UniProt P70288: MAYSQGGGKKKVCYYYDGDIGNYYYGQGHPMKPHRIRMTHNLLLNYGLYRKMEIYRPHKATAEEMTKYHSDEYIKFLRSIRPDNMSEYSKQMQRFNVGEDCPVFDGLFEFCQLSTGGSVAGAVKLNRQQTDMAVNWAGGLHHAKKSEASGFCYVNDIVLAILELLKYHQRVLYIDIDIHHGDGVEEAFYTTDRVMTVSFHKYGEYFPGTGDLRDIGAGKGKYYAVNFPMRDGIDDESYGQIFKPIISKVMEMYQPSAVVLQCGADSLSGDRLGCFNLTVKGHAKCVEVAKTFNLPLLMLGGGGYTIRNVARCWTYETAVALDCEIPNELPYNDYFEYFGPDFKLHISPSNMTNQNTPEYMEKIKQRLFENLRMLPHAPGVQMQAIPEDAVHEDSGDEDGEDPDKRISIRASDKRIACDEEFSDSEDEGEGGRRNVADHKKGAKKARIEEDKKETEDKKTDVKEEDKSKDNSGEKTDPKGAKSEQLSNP

These are yes or no findings as the source states them, for the method shown. In cells and extracts the contact can be indirect. Some binding calls cover weakened binding; strength is not graded here.

In this experiment the target is CHD4 (mouse (endogenous in choroid plexus)) (UniProt Q6PDQ2). The experiment can be described thus: co-IP; endogenous proteins; choroid plexus tissue (pooled P0 pups and adults) homogenized in NET buffer (150 mM NaCl, 10 mM Tris 8.0, 5 mM EDTA, 10% glycerol, 2% Triton X-100); precleared lysate incubated with CHD4 antibody overnight at 4 °C, Protein G agarose; immunoblot.

As for HDAC1 (from UniProt O09106 1-482), the binding result is “binds”. Take HDAC2 (from UniProt P70288 1-488): the binding entry is “binds”.
